Literature values, collected in patent US11071781B2, “Combination of local and systemic immunomodulative therapies for enhanced treatment of cancer” (Provectus Pharmatech, Inc., priority 2011, dated 2021).
For at least one compound, name, drawing or mass did not settle the structure.

System: melanoma
Settings: single-agent systemic chemotherapy

CN(C)/N=N/c1[nH]cnc1C(N)=O [dacarbazine]
cases in which the regimen is successful: 10-15%
